Laboratory results as given in patent US20250074957A1.
These are yes or no findings as the source states them, for the method shown. Some results given as binding are weak or reduced against the parent protein; the word gives no strength.

What was measured:
[1] = target: FMC63-CD28-IKZF3 (HaloTag fusion for BRET); test: NanoBRET in 293T cells with pomalidomide
[2] = target: FMC63-CD28-IKZF3 (HaloTag fusion for BRET); test: NanoBRET (constructs used in FIG. 2 and FIG. 3)
[3] = target: FMC63-CD28-IKZF3 (HaloTag fusion for BRET); test: NanoBRET in 293T cells, 10 µM MG132, 2 hours of drug treatment

Measured: binding

B1: Split CAR component 3 (BRET) (protein, not shown: large carriers)
chain: ERRAEVPTAHPSPSPRPAGQFQTLVVGVVGGLLGSLVLLVWVLAVICSRAARGTIGARRTGQPLKEDPSAVPVFSVDFGELDFQWREKTPEPPVPCVPEQTEFATIVFPSGMGTSSPARRGSADGPRSAQPLRPEDGHCSWPLGGGGSAGEGDQQDAAHNMGNHLPLLPESEEEDEMEVEDQDSKEAKKPNIINFDTSLPTSHTYLGADMEEFHGRTLHDDDSCQVIPVLPQVMMILIPGQTLPLQLFHPQEVSMVRNLIQKDRTFAVLAYSNVQEREAQFGTTAEIYAYREEQDFGIEIVKVKAIGRQRFKVLELRTQSDGIQQAKVQILPECVLPSTYDAETLMDRIKKQLREWDENLKDDSLPSNPIDFSYRVAACLPIDDVLRIQLLKIGSAIQRLRCELDIMNKCTSLCCKQCQETEITTKNEIFSLSLCGPMAAYVNPHGYVHETLTVYKACNLNLIGRPSTEHSWFPGYAWTVAQCKICASHIGWKFTATKKDMSPQKFWGLTRSALLPTIPDTEDEISPDKVILCL
binds: all assays above
